# Source: patent US20230391865A1
# By UniProt entry, the sequences of proteins in these tests, tags left out.
# UniProt O60637: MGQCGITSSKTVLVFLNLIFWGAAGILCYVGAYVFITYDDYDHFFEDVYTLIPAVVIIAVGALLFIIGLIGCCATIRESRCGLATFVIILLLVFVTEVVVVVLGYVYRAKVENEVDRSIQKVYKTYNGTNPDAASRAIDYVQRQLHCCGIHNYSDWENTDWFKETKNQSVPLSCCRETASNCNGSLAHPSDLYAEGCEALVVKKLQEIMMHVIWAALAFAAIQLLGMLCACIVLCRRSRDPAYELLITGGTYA
# These are yes or no findings as the source states them, for the method shown. Some results given as binding are weak or reduced against the parent protein; the word gives no strength.
# Molecular target: human Tetraspanin-3 (TSPAN3) (human) (UniProt O60637)
# Assay: FACS screen of hybridoma clones on cell surface expressed TSPAN3
binder,measurement,value
"Anti-TSPAN3 M3 clone monoclonal antibody (antibody, V domains shown) VH: QIQLVQSGPELKKPGETVKISCKASGYTFTTYGMSWVKQAPGKGLKWMGWINTYSGVPTYADDFKGRFAFSLETSASTAYLQINNLKNEDTATYFCARSHYSNFYAMDYWGQEPQSP VL: DIVMTQSHKFMSTSVGDRVSITCKASQDVGTAVAWYQQKPGQSPKLLIYWASTRHTGVPDRFTGSGSGTDFTLTISNVQSEDLADYFCQQYSSYPLTFGAGTKLELK",binding,binds
